## Percent effect of library compounds

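Cell assay of Leishmania donovani living inside macrophages; the read-out is not stated. Tested at 30 µM. The record gives no direction; compounds that gave an IC50 in retests scored well above the rest, so higher reads as stronger inhibition. Size under these conditions: about 69,000 compounds, about 1,000 of them at 50% or above in at least one test.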

Each number is a percent effect as filed.
How 0% and 100% were set is not recorded. Most values in the screen are low, and negative values occur.
The compounds are a random part of those screened.
Two or more numbers in one place are separate tests of the same structure; such repeats can differ widely.

| # | structure | percent effect |
|---|---|---|
| 1 | `COc1ccc(C2CC(=O)c3c(O)cc(O)cc3O2)cc1O` (configuration not stated) | 11.24% |
| 2 | `COc1ccc(C2=CCN(C(=O)C3CC(=O)N(C4CC4)C3)CC2)cc1` (configuration not stated) | 12.64% |
| 3 | `CCOC(=O)CC(C)Nc1nc(C2CCCC2)nc2c1cnn2C` (configuration not stated) | 12.28% |
| 4 | `Fc1ccc(OCc2nnc([C@H]3CCN(Cc4cccnc4)C3)o2)cc1` | -15.81% |
| 5 | `O=C(O)C(F)(F)F.c1ccc(CN2Cc3nccn3CC(Cn3cncn3)C2)nc1` (configuration not stated) | -18.58% |
| 6 | `Cn1cc(S(=O)(=O)Nc2ccc(Cl)cn2)cc1C(N)=O` | 28.62% |
| 7 | `O=C(N1CCCC1)N1Cc2nccn2CC(COc2cccnc2)C1.O=C(O)C(F)(F)F` (configuration not stated) | 14.38% |
| 8 | `CCN1CC(COC(C)(C)C)Oc2ccncc2S1(=O)=O` (configuration not stated) | 9.292% |
| 9 | `Cc1cnn(CC2CN(Cc3ccccn3)CCO2)c1` (configuration not stated) | 14.93% |
| 10 | `CCOc1nn(CC)cc1-c1nnc(SCc2cccnc2)n1C` | 21.7% |
| 11 | `CN(C)C(=O)C1CN(Cc2c[nH]cn2)CCN(C2CCOCC2)C1` (configuration not stated) | -8.407% |
| 12 | `O=C(NCC1(c2cccc(F)c2)CC1)N1CCC2(CCOC2)C1` (configuration not stated) | -5.939% |
| 13 | `O=C(Cn1cnc2cc3c(cc21)OCCCO3)NC1CCCC1` | 21.8% |
| 14 | `C=C(C)CN1CCOC(Cn2cncn2)C1` (configuration not stated) | -39.8% |
| 15 | `Cc1nc(CN(C)C(=O)CNC(=O)c2ccc(C#N)cc2)cs1` | 17.03% |
| 16 | `CC(NCc1cnc(C2CCC2)s1)c1ccc(-n2cccn2)cc1` (configuration not stated) | 23.03% |
| 17 | `Cc1nccc(-c2cccc(NCC(=O)N3CCOCC3)c2)n1` | 20.72% |
| 18 | `CCc1nnc(N2C[C@@H](NC(C)=O)[C@H](c3ccc(C)o3)C2)s1` | 10.21% |
| 19 | `COCCNc1nc(-c2ccc(S(=O)(=O)N3CCCCCC3)cc2)cs1` | 33.97% |
| 20 | `O=C(O)C(F)(F)F.[H][C@]12CCC[C@@H](CNc3ccccn3)[C@@]1([H])CN(Cc1cccnc1)C2` | 38.85% |
| 21 | `Cc1nccc(N2CCCC2CCNS(C)(=O)=O)n1` (configuration not stated) | 6.438% |
| 22 | `CNc1cc(N2CCCC2CNCc2cccc(C#N)c2)ncn1` (configuration not stated) | 18.67% |
| 23 | `CN1CCOC(CNC(=O)CCCc2ccccc2)C1` (configuration not stated) | 6.627% |
| 24 | `CC1CN(S(=O)(=O)c2ccc(F)cc2)c2cccnc2O1` (configuration not stated) | 17.52% |
| 25 | `Cc1nn(C)cc1C(=O)N1CCCN(C2Cc3ccccc3C2)CC1` | 24.04% |
| 26 | `CN(C)C(=O)Cc1ccc(NCc2nccn2C)cc1` | 1.451% |
| 27 | `[H][C@]12CC[C@]([H])(CN(Cc3ccncc3)C1)N(C(=O)C1CCOCC1)C2` | 11.14% |
| 28 | `Cc1csc(N2CCN(Cc3cnc4c(c3)c(C)nn4C)CC2)n1` | 31.52% |
| 29 | `Cc1cc(C)n(CC2CN(Cc3nc(C4CC4)no3)CCO2)n1` (configuration not stated) | 27.03% |
| 30 | `CCN(CC1CCCO1)C(=O)Nc1cccc(N2CCOCC2)c1` (configuration not stated) | 20.54% |
| 31 | `Cc1nn(C)c2c(NCCCn3cccn3)nc(C(C)C)nc12` | -6.664% |
| 32 | `CCC[C@H]1CN(Cc2cscn2)C[C@@H]1NC(=O)C1(COC)CCC1` | -5.054% |
| 33 | `CNS(=O)(=O)CC(=O)N1CCCc2cc(Br)ccc21` | 41.67% |
| 34 | `COC(=O)CC(NC(=O)CCn1cccn1)c1ccc(C)cc1` (configuration not stated) | -1.436% |
| 35 | `N#CCCNC(=O)CSc1ccc(F)cc1F` | 11.97% |
| 36 | `Cc1ccc(N2CCC3(CCCN3Cc3ccn(C)n3)CC2)nn1.O=C(O)C(F)(F)F` | 26.46% |
| 37 | `O=C(Cn1cc(-n2cccc2)cn1)NCC(F)(F)F` | 10.63% and -2.59% |
| 38 | `Cc1cc2c(cc1C)OC(C(=O)NCCNC(=O)C1CCCC1)C2` (configuration not stated) | -12.67% |
| 39 | `Cn1cc(CN2CCC3(CC2)CC(Nc2nccs2)CO3)cn1.O=C(O)C(F)(F)F` (configuration not stated) | 30.12% |
| 40 | `COCCOCC(=O)NC1CCN(c2ccccn2)CC1` | -25.16% |
| 41 | `COC(=O)c1cccc(C(=O)N2CCN(c3ccc(OC)cc3)CC2)n1` | -28.16% |
| 42 | `O=C(C1CCOCC1)N1CCCC1c1cncc(CN2CCCC2)n1` (configuration not stated) | 2.212% |
| 43 | `OC1(CN2CCCCC2)CCN(c2cccc(C(F)(F)F)n2)C1` (configuration not stated) | 20.39% |
| 44 | `COc1ccc(-n2ccc(C(=O)N(CCN(C)C)C(C)C)n2)cc1` | -20.88% |
| 45 | `Cc1cc2nc(C(C)C)cc(N3CCN(c4ccc(O)cc4)CC3)n2n1` | 39.27% |
| 46 | `FC1(F)CCN(Cc2cccnc2)CC12CCN(c1ccccn1)C2.O=C(O)C(F)(F)F.O=C(O)C(F)(F)F.O=C(O)C(F)(F)F` (configuration not stated) | 38.27% |
| 47 | `CCC(NC(=O)C1CCN(S(C)(=O)=O)CC1)c1ccc(C)cc1` (configuration not stated) | 12.86% |
| 48 | `Cc1noc(C)c1CNC[C@@]1(COc2cccnc2)C[C@@H](O)[C@@H](O)C1.Cl.Cl` | 6.756% |
| 49 | `CCCC(=O)N(CCN1CCOCC1)c1nc2c(OC)ccc(C)c2s1.Cl` | 13.14% and 18.35% |
| 50 | `CN1C(=O)C2(CCNCC2)c2cc(F)ccc21.Cl` | 40.83% |
| 51 | `O=C(O)C(F)(F)F.[H][C@@]12OCCN(Cc3ccoc3)[C@@]1([H])CC[C@H]2OCC1CCOCC1` | 14.5% |
| 52 | `CC(C)C(O)C1(CNC(=O)Nc2ccc(CN3CCOC3=O)cc2)CC1` (configuration not stated) | 19.54% |
| 53 | `[H][C@@]12CCN(C[C@@H]1CN(C)c1ccccc1)[C@@H](CNC(=O)COC)C2` | 12.38% |
| 54 | `CSCc1ccc(C(=O)NCCCNc2ccc(C(F)(F)F)cn2)cc1` | 27.22% |
| 55 | `Cc1cc(NC(=O)NCC(O)c2ccc(F)c(F)c2)n(C)n1` (configuration not stated) | -14.95% |
| 56 | `CN1CCOCC2(CCCN(C(=O)Cc3ccncc3)C2)C1.O=C(O)C(F)(F)F` (configuration not stated) | 25.3% |
| 57 | `Cc1cc2n(n1)CC(CNCc1ccccc1Cn1cccn1)CN2` (configuration not stated) | 26.31% |
| 58 | `COCCNC(=O)c1ccc(C)c(-n2cccc2)c1` | 9.195% |
| 59 | `COc1cccc(S(=O)(=O)CCN2CCN(CCO)CC2)c1` | 33.93% |
| 60 | `O=C(O)C(F)(F)F.[H][C@]12CCN(C(=O)c3cnccn3)C[C@@]1([H])[C@H](CN1CCCC1)OC2` | 9.869% |
| 61 | `CN(C1CCCC1)C(C)(C)C(=O)NCCNC(N)=O` | -7.704% |
| 62 | `CCOCCNC(=O)c1cccnc1Sc1cc(OC)ccc1OC` | 14.43% |
| 63 | `Cc1cc(C)c(CNC(=O)C2COc3ccccc3C2)c(=O)[nH]1` (configuration not stated) | 14.07% |
| 64 | `Cc1ccc(C(O)CNC(=O)NCc2nc(C)cs2)cc1` (configuration not stated) | 1.697% |
| 65 | `O=c1cc(CN2CCCC2)nc2n1CCCN(Cc1ccsc1)C2` | 47.85% |
| 66 | `CN(C(=O)CCNC(=O)C1COc2ccccc21)c1ccccc1` (configuration not stated) | -3.492% |

The first 4 entries again:

- COc1ccc(C2CC(=O)c3c(O)cc(O)cc3O2)cc1O (configuration not stated) | 11.24%
- COc1ccc(C2=CCN(C(=O)C3CC(=O)N(C4CC4)C3)CC2)cc1 (configuration not stated) | 12.64%
- CCOC(=O)CC(C)Nc1nc(C2CCCC2)nc2c1cnn2C (configuration not stated) | 12.28%
- Fc1ccc(OCc2nnc([C@H]3CCN(Cc4cccnc4)C3)o2)cc1 | -15.81%

Measurements from “University of Dundee, Small-Polar-MMV Screening Library” (2021), ChEMBL document CHEMBL3988442.